# Measurements reported in PubChem BioAssay AID1224826 (NIAID, 2016).
# Screen: 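Regulators of Tlr4 signalling leading to Tnf-alpha expression in macrophages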 (primary screen)
# Cell system: RAW264.7 G9 macrophages from mouse bearing reporters for p65 (GFP) and the Tnf promoter (mCherry)
# Knock-down reagent: siRNA pool against mouse genes, 100 nM
# Duration: 16 h of LPS stimulation, after 2 days of siRNA transfection
# Challenge: bacterial lipopolysaccharide (Salmonella minnesota R595), 10 ng/ml
# Measured: 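Nuclear mCherry signal of the Tnf promoter reporter measured by imaging after background removal, scaled to each plate median and turned into robust z-scores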
# Direction: Tnf reporter robust z-score: higher = stronger Tnf promoter reporter signal after LPS
# Call rule: 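a well counts as active at a score of -1.3 or below (Tlr4 knock-down control median) or above 3 (raised signal); controls and wells holding fewer than 50 cells are excluded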
# Calls: active = Tnf reporter clearly lowered or raised; inactive = no clear change in Tnf reporter
# The whole screen tested about 17,000 reagents; this is an unselected part. In the full data, about 1,110 (6.6%) are marked active. 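Active means lowered or raised reporter signal; replicate intensities are raw and not normalised per plate.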 The numbers tell different reagents against one gene apart. Some reagents were tested in more than one well and are listed for each. Not all columns of the deposit are shown.
gene knocked down,pool no.,Tnf reporter robust z-score,fewer than 50 cells in well,call
Tcap (titin-cap),1,0.45,enough cells in well,inactive
"Rbp2 (retinol binding protein 2, cellular)",1,1.09,enough cells in well,inactive
Tmc1 (transmembrane channel-like gene family 1),1,0.43,enough cells in well,inactive
Sema6a,1,0.63,enough cells in well,inactive
Dnajb4 (DnaJ heat shock protein family (Hsp40) member B4),1,3.9,enough cells in well,active
"Gprc5a (G protein-coupled receptor, family C, group 5, member A)",1,0.31,enough cells in well,inactive
"Ppm1a (protein phosphatase 1A, magnesium dependent, alpha isoform)",1,2.07,enough cells in well,inactive
Prr14l (proline rich 14-like),1,,fewer than 50 cells per well; well left out of calls,inactive
Mfsd1 (major facilitator superfamily domain containing 1),1,,fewer than 50 cells per well; well left out of calls,inactive
Hcrt (hypocretin),1,2.33,enough cells in well,inactive
Hspa8 (heat shock protein family A (Hsp70) member 8),1,,fewer than 50 cells per well; well left out of calls,inactive
Cfap100 (cilia and flagella associated protein 100),1,,fewer than 50 cells per well; well left out of calls,inactive
"Mycs (myc-like oncogene, s-myc protein)",1,-0.78,enough cells in well,inactive
"Gja8 (gap junction protein, alpha 8)",1,-0.14,enough cells in well,inactive
Psmb8,1,,fewer than 50 cells per well; well left out of calls,inactive
Cfh (complement component factor h),1,0.1,enough cells in well,inactive
Cd2bp2 (CD2 cytoplasmic tail binding protein 2),1,1.43,enough cells in well,inactive
Smim30 (small integral membrane protein 30),1,0.17,enough cells in well,inactive
Cetn1 (centrin 1),1,-0.46,enough cells in well,inactive
Bend5 (BEN domain containing 5),1,,fewer than 50 cells per well; well left out of calls,inactive
Tsen15 (tRNA splicing endonuclease subunit 15),1,-0.01,enough cells in well,inactive
Ppdpf,1,,fewer than 50 cells per well; well left out of calls,inactive
Nedd8,1,-1.03,enough cells in well,inactive
"Cacna1c (calcium channel, voltage-dependent, L type, alpha 1C subunit)",1,0.51,enough cells in well,inactive
Cxcr5 (C-X-C motif chemokine receptor 5),1,0.87,enough cells in well,inactive
Adpgk (ADP-dependent glucokinase),1,,fewer than 50 cells per well; well left out of calls,inactive
Dhcr7 (7-dehydrocholesterol reductase),1,0.91,enough cells in well,inactive
Atg12 (autophagy related 12),1,-1.42,enough cells in well,active
Dchs1 (dachsous cadherin related 1),1,-0.73,enough cells in well,inactive
Pepd (peptidase D),1,-0.6,enough cells in well,inactive
Gpr108 (G protein-coupled receptor 108),1,0,enough cells in well,inactive
Map3k14 (mitogen-activated protein kinase kinase kinase 14),1,-0.09,enough cells in well,inactive
Cpsf2 (cleavage and polyadenylation specific factor 2),1,,fewer than 50 cells per well; well left out of calls,inactive
Tmem39b (transmembrane protein 39b),1,0.77,enough cells in well,inactive
Trpd52l3 (tumor protein D52-like 3),1,0.64,enough cells in well,inactive
Trpd52l3 (tumor protein D52-like 3),1,,fewer than 50 cells per well; well left out of calls,inactive
Dppa5a (developmental pluripotency associated 5A),1,1.58,enough cells in well,inactive
Cltb (clathrin light chain B),1,-0.89,enough cells in well,inactive
"Cop1 (COP1, E3 ubiquitin ligase)",1,-0.24,enough cells in well,inactive
Memo1 (mediator of cell motility 1),1,2.23,enough cells in well,inactive
Zfp273 (zinc finger protein 273),1,0.21,enough cells in well,inactive
Pawr (pro-apoptotic WT1 regulator),1,-1.21,enough cells in well,inactive
Slc4a1ap,1,-0.69,enough cells in well,inactive
Ube3a (ubiquitin protein ligase E3A),1,0.85,enough cells in well,inactive
"Rptor (regulatory associated protein of MTOR, complex 1)",1,-1.21,enough cells in well,inactive
Hdac9 (histone deacetylase 9),1,-0.42,enough cells in well,inactive
Hdac9 (histone deacetylase 9),2,-0.69,enough cells in well,inactive
Rad51b (RAD51 paralog B),1,-0.28,enough cells in well,inactive
Stxbp3 (syntaxin binding protein 3),1,2.84,enough cells in well,inactive
Cryzl1 (crystallin zeta like 1),1,-0.12,enough cells in well,inactive
Pttg1ip (pituitary tumor-transforming 1 interacting protein),1,0.01,enough cells in well,inactive
"Myc (Myc proto-oncogene, bHLH transcription factor)",1,0.72,enough cells in well,inactive
Acot2 (acyl-CoA thioesterase 2),1,,fewer than 50 cells per well; well left out of calls,inactive
Tnn (tenascin N),1,-0.6,enough cells in well,inactive
Syt1 (synaptotagmin I),1,-0.36,enough cells in well,inactive
Foxq1 (forkhead box Q1),1,3.99,enough cells in well,active
Agpat5 (1-acylglycerol-3-phosphate O-acyltransferase 5),1,0.1,enough cells in well,inactive
Mettl25 (methyltransferase like 25),1,0.88,enough cells in well,inactive

Hits (from the list above):
gene knocked down,pool no.,Tnf reporter robust z-score,fewer than 50 cells in well,call
Dnajb4 (DnaJ heat shock protein family (Hsp40) member B4),1,3.9,enough cells in well,active
Atg12 (autophagy related 12),1,-1.42,enough cells in well,active
Foxq1 (forkhead box Q1),1,3.99,enough cells in well,active
